# At least one compound was matched to its structure with a doubt left.
# Protein sequences, listed by entry. Tags and fused reporters are not part of them. Residues count along the entry.
# UniProt P09238, 99-476: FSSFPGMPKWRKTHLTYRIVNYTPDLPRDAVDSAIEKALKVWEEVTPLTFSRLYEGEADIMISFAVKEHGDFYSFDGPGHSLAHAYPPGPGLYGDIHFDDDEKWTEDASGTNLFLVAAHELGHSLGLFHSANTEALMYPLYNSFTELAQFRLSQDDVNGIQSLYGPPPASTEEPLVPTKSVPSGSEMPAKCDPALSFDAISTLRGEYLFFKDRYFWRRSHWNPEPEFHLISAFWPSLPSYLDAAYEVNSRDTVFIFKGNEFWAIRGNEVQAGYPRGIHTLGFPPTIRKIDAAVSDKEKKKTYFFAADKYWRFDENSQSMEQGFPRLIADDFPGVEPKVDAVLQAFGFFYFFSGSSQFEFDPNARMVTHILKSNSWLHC
# UniProt P14780, 94-707: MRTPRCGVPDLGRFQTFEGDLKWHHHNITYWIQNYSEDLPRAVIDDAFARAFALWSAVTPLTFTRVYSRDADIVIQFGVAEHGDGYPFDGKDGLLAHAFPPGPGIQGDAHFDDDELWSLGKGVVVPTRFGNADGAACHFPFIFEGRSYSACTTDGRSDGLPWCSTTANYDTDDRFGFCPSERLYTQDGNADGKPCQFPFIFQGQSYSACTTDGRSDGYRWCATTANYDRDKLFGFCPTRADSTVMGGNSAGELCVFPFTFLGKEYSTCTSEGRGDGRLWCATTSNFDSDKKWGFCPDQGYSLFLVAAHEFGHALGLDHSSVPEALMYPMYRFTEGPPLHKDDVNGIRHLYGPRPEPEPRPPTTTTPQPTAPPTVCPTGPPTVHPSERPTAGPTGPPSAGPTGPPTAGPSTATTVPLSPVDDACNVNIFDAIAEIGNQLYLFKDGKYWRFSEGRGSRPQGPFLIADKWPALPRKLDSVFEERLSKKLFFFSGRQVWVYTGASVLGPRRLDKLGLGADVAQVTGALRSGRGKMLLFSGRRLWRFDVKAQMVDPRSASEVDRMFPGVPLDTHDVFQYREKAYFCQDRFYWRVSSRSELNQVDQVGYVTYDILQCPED
# What was measured:
# [1] = biological target: T1, MMP-10 (Homo sapiens, UniProt P09238); assay: MMP profiling, IC50 (fluorimetric MMP inhibitor profiling kit); type: biochemical
# T1 construct: purchased Enzo Life Science, Farmingdale, NY
# Procedure: (§1) After administration of fluorogenic substrate, a velocity of fluorescent increase was measured using excitation/emission=320/405 nm.
# [2] = biological target: T2, MMP-9 (Homo sapiens, UniProt P14780); assay: as above; type: biochemical
# T2 construct: purchased Enzo Life Science, Farmingdale, NY
# Procedure: as §1
smiles,measurement,setting,value
CNC(=O)[C@H](Cc1ccccc1)NC(=O)[C@H](CC(C)C)[C@H](CSc1cccs1)C(=O)NO [Batimastat],IC50,[1],52 nM
same,IC50,[2],6.7 nM
